From US20220204572A1
These are yes or no findings as the source states them, for the method shown. Binding seen in cells or lysates may run through a third protein. Some entries that bind do so weakly or less than the wild type.

Protein sequences, listed by entry. Tags and fused reporters are not part of them. Residues count along the entry.
UniProt P35222, residues 2-781: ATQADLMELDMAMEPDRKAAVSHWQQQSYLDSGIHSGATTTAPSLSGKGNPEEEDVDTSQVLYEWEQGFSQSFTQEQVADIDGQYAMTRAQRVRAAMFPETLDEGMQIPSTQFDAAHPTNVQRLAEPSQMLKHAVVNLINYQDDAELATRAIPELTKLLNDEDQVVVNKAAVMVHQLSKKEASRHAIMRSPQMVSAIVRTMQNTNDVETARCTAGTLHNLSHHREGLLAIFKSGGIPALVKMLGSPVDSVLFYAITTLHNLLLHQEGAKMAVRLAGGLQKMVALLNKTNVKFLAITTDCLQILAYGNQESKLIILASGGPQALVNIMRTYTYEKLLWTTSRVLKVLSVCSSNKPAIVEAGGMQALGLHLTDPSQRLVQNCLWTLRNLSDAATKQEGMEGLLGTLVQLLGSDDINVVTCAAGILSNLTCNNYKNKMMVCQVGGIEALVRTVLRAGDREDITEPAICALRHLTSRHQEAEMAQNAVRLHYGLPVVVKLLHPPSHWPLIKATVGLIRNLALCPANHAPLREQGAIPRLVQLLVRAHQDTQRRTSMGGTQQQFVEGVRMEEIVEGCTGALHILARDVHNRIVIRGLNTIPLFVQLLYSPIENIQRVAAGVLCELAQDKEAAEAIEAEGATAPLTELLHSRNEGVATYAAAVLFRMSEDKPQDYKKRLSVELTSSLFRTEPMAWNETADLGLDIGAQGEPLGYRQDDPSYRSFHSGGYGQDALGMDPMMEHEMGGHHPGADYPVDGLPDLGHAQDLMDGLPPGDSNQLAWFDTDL
UniProt P12830, residues 155-882: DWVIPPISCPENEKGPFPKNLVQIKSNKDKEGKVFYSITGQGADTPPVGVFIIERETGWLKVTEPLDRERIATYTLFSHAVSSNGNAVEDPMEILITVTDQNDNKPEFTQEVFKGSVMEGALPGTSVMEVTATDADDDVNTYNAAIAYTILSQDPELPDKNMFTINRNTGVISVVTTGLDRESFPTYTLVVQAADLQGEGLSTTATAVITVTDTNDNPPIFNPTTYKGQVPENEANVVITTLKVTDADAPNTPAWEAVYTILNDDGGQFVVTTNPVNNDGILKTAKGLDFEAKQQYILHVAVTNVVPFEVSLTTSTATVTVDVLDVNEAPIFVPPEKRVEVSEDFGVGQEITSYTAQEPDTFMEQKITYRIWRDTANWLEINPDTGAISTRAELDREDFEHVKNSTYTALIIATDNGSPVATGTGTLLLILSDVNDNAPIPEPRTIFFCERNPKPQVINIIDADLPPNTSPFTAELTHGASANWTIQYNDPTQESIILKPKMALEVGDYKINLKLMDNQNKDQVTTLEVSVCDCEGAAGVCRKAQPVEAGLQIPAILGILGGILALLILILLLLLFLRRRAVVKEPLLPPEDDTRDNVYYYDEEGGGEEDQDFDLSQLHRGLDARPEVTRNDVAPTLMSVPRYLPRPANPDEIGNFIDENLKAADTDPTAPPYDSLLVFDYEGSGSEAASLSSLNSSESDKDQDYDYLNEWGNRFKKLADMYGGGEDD

Columns and labels:
[1] = molecular target: β-catenin (native, in cell lysates) (UniProt P35222); assay: co-immunoprecipitation
[2] = molecular target: β-catenin (native, in cell lysates) (UniProt P35222); assay: anti-β-catenin co-immunoprecipitation from MCF7 lysates (FIG. 8A)

binding [1]: binds
binding [2]: binds
Substance: E-cadherin (native, in MCF7 cell lysates) (from UniProt P12830 155-882)
